Assay [1] addresses Tax-miniTurboID fusion protein (HTLV-1 transactivator Tax) (HTLV-1) (UniProt P03409). Nature of the assay: proximity labelling; miniTurboID: HeLa S3 transfected with Tax-miniTurboID or empty control, 500 uM biotin for 6 hours, RIPA lysis, streptavidin agarose beads, DIA-LC/MS; fold change > 1.2 over control considered positive.
The target is the same in assay [2]. The assay is described as above. This is another data set of the same source.

Protein sequences, listed by entry. Tags and fused reporters are not part of them.
UniProt Q04206: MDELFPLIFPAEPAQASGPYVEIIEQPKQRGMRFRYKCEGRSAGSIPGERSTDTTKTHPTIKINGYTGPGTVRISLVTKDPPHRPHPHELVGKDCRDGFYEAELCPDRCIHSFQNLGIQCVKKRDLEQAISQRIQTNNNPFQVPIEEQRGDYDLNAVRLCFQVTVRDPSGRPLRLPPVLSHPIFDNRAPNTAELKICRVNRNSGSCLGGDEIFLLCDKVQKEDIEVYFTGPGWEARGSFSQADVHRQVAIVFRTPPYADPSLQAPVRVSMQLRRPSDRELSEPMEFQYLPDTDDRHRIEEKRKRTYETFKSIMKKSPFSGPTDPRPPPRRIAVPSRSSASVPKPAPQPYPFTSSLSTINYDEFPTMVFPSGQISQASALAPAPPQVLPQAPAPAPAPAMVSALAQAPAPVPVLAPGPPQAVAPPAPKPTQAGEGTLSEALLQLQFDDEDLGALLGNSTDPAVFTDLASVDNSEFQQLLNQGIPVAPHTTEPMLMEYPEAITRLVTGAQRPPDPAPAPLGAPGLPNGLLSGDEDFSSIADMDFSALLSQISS
UniProt P16220: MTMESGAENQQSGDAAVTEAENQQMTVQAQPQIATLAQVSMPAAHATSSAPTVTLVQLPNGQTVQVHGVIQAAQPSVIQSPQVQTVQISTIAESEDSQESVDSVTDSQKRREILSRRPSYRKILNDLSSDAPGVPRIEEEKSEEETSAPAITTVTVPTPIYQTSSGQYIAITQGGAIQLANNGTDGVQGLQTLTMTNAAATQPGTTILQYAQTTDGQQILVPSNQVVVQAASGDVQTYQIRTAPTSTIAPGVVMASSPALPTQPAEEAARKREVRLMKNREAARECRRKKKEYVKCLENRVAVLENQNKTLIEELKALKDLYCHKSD

Where two headings read alike, the source gives them in different places. No constants are given. Whether binding was seen depends on the method and setting. In cells and extracts the contact can be indirect. A yes stands for co-enrichment or nearness to the bait. Other partners may have been found.

As for RELA (from UniProt Q04206 1-551), in assay [1], the binding result is given as “binds”.
On to EP300 (from UniProt Q09472 1-2414), for which the binding result in assay [1] is “binds”.
Regarding CREB1 (from UniProt P16220 1-327), the binding entry in assay [1] is “binds”.

B1: G-patch domain containing 1 (GPATCH1), endogenous (protein, UniProt Q9BRR8 1-931)
chain: MAARDSDSEEDLVSYGTGLEPLEEGERPKKPIPLQDQTVRDEKGRYKRFHGAFSGGFSAGYFNTVGSKEGWTPSTFVSSRQNRADKSVLGPEDFMDEEDLSEFGIAPKAIVTTDDFASKTKDRIREKARQLAAATAPIPGATLLDDLITPAKLSVGFELLRKMGWKEGQGVGPRVKRRPRRQKPDPGVKIYGCALPPGSSEGSEGEDDDYLPDNVTFAPKDVTPVDFTPKDNVHGLAYKGLDPHQALFGTSGEHFNLFSGGSERAGDLGEIGLNKGRKLGISGQAFGVGALEEEDDDIYATETLSKYDTVLKDEEPGDGLYGWTAPRQYKNQKESEKDLRYVGKILDGFSLASKPLSSKKIYPPPELPRDYRPVHYFRPMVAATSENSHLLQVLSESAGKATPDPGTHSKHQLNASKRAELLGETPIQGSATSVLEFLSQKDKERIKEMKQATDLKAAQLKARSLAQNAQSSRAQLSPAAAAGHCSWNMALGGGTATLKASNFKPFAKDPEKQKRYDEFLVHMKQGQKDALERCLDPSMTEWERGRERDEFARAALLYASSHSTLSSRFTHAKEEDDSDQVEVPRDQENDVGDKQSAVKMKMFGKLTRDTFEWHPDKLLCKRFNVPDPYPDSTLVGLPRVKRDKYSVFNFLTLPETASLPTTQASSEKVSQHRGPDKSRKPSRWDTSKHEKKEDSISEFLSLARSKAEPPKQQSSPLVNKEEEHAPELSANQTVNKDVDAQAEGEGSRPSMDLFRAIFASSSDEKSSSSEDEQGDSEDDQAGSGEANFQSSQDTDLGETSSVAHALVPAPQEPPPSFPIQKMQIDEREEFGPRLPPVFCPNARQTLEVPQKEKHKKNKDKHKAKKEHRRKKEKKKKHRKHKHKGKQKNKKPEKSSSSESSDSSDSQSDEETADVSPQELLRRLKSLPLRRQ
With B1, in assay [2], the binding result is reported as “binds”.

B2: WD repeat domain 83 (WDR83), endogenous (protein, UniProt Q9BRX9 1-315)
chain: MAFPEPKPRPPELPQKRLKTLDCGQGAVRAVRFNVDGNYCLTCGSDKTLKLWNPLRGTLLRTYSGHGYEVLDAAGSFDNSSLCSGGGDKAVVLWDVASGQVVRKFRGHAGKVNTVQFNEEATVILSGSIDSSIRCWDCRSRRPEPVQTLDEARDGVSSVKVSDHEILAGSVDGRVRRYDLRMGQLFSDYVGSPITCTCFSRDGQCTLVSSLDSTLRLLDKDTGELLGEYKGHKNQEYKLDCCLSERDTHVVSCSEDGKVFFWDLVEGALALALPVGSGVVQSLAYHPTEPCLLTAMGGSVQCWREEAYEAEDGAG
In the case of B2, the binding entry in assay [2] was “binds”.

(Values after paper PMC12313066.)
